Source: patent US8492515B2 (priority 2008, dated 2013)
Part of at least one peptide drawing is inferred or uncertain, most often the ends. Bridge positions count the residues as written; N and C are the ends. Square brackets hold non-standard residues; d marks the D form. Ends that are not written are not given here. I, II: the chains in the order shown. Ac6c = NC1(C(=O)O)CCCCC1; Dab = NCC[C@H](N)C(=O)O

Tested on: Escherichia coli 5770
Assay: Blood bacterial counts before and after intraperitoneal dosing of infected CD-1 mice (FIGS. 4A, 4B)
Type: in vivo
Conditions: compared with imipenem in the respective assay
Excerpt: FIGS. 4A and 4B illustrate blood bacterial counts before and after intraperitoneal drug dosing to Escherichia coli 5770 infected CD-1 mice. In FIG. 4A the symbols represent bacterial counts observed for infected and non-treated mice, A3-APO treated mice and imipenem treated mice. In FIG. 4B the symbols represent bacterial counts observed for infected and non-treated mice, Chex1-Arg20-NH2 treated mice and imipenem treated mice. Identical shapes if FIGS. 4A and 4B represent identical timepoints, respectively.
Both A3-APO and Chex1-Arg20 are active in lethal systemic infections. Efficacy is shown in both the increase of survival time and the reduction of blood bacterial counts. FIGS. 4A and 4B show blood bacterial counts before and after intraperitoneal drug dosing to Escherichia coli 5770 infected CD-1 mice. In FIG. 4A the symbols represent bacterial counts observed for infected and non-treated mice, A3-APO treated mice and imipenem treated mice. In FIG. 4B the symbols represent bacterial counts observed for infected and non-treated mice, Chex1-Arg20-NH2 treated mice and imipenem treated mice. Identical shapes if FIGS. 4A and 4B represent identical timepoints, respectively.

## I: [Ac6c]RPDKPRPYLPRPRPPRPVR[Dab] / II: [Ac6c]RPDKPRPYLPRPRPPRPVR (amide I:21-II:C (inferred)) [Peptide A3-APO]
  reduction of blood bacterial counts: reduced the bacterial counts to levels identical to those observed after imipenem treatment
